The source of these data is US9150899B2 (2cureX, priority 2004, dated 2015).

For part of these data: The same purity stands for every peptide and may come from a single statement.

Data set [1] can be described thus: general procedure: Fmoc solid-phase peptide synthesis; HMBA modified PEGA 800; TBTU/NEM; MSNT/MeIm for first residue. As to conditions: whole synthesis, scale 200 mg of HMBA modified PEGA 800 beads.
The nature of data set [2]: general procedure: Fmoc solid-phase peptide synthesis; PEGA resin with HMBA linker (HMBA modified PEGA 800 beads); TBTU/NEM; MSNT/MeIm for first residue. The note with it: whole synthesis, scale of the general procedure 200 mg resin.

“H-Ala-Glu-(azetidine-1-carboxyl)-(homo-Phe)-OH”: in data set [1], the isolated mass is given as 21 mg. The “final HPLC purity” value in data set [2] is reported as greater than 98%. Take “H-Ala-Val-Pro-Phe-Ala-Val-Lys-Ser-Glu-OH”: the “final HPLC purity” value in data set [2] is recorded as greater than 98%. For the substance “H-Ala-Glu-(1-amino-cyclopentanecarboxyl)-Phe-OH”, the isolated mass in data set [1] is given as 22 mg. Also, the “final HPLC purity” value in data set [2] is listed as greater than 98%.

For the substance H-Ala-Val-Pro-Ile-OH, the isolated mass in data set [1] came to 17 mg. Besides, the “final HPLC purity” value in data set [2] is recorded as greater than 98%. For “H-Ala-Glu-Ala-Val-Pro-Trp-Lys-Ser-Glu-OH”, in data set [2], the “final HPLC purity” value is reported as greater than 98%. On the same count and under the same terms, the result for “H-Ala-Val-Pro-Ile-Ala-Gln-Lys-Ser-Glu-OH” reads greater than 98%.
